PubChem BioAssay AID1508588 | Peter MacCallum Cancer Centre – 2020
The deposit covers about 18,000 reagents; this is a part drawn at random. In the full data, 790 (4.4%) got an active call. 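Calls rest on a combination of fold-change classes in drug and vehicle arms, not all shown here.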 A reagent listed more than once was tested more than once; the source does not tell the runs apart.

Aim: 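Which gene losses make BRAF-mutant melanoma cells more responsive to vemurafenib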 (primary screen)
System: human WM266.4 melanoma cells (BRAF V600 mutant)
Reagent: siRNA pool against human genes, 40 nM
Time to read-out: 96 h from transfection to read-out
Conditions: vemurafenib 300 nM (about IC25), added 48 h after transfection, for 48 h; comparison arm got DMSO vehicle only
Measurement: 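Ratios to non-targeting siRNA for cell gain, counted as DAPI nuclei after minus before drug and averaged over two replicates, and for absorbance-read medium lactate per cell; both binned into fold-change classes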
Scale: cell gain with vemurafenib: higher = more cell gain than with non-targeting siRNA; lactate per cell with vemurafenib: higher = more lactate made per cell
Rule for the call: 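Enhancement is called by pairing each knock-down's vehicle-arm and drug-arm fold-change classes for viability or glycolysis; which class combinations qualify is not given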
Meaning of the calls: active = enhances vemurafenib effect; inactive = no enhancement seen

| gene symbol | cell gain with vemurafenib | lactate per cell with vemurafenib | activity call |
| --- | --- | --- | --- |
| TTLL9 | 0.54 | 0.42 | inactive |
| UVSSA | 0.62 | 0.78 | inactive |
| RADIL | 0.71 | 0.66 | inactive |
| UBE2NL | 0.5 | 0.76 | inactive |
| HOXB9 | 0.64 | 1.78 | inactive |
| FBXL22 | 0.44 | 1.43 | inactive |
| WDR53 | 0.5 | 1.71 | inactive |
| ARID5A | 0 | 0 | inactive |
| GPR148 | 0.35 | 0.66 | inactive |
| HDDC3 | 0.25 | 0.87 | inactive |
| KRT73 | 0.38 | 0.78 | inactive |
| OR52N2 | 0.41 | 0.78 | inactive |
| SETBP1 | 0.18 | 1.25 | inactive |
| PIK3CD-AS1 | 0.45 | 1.51 | inactive |
| PRPSAP2 | 0.49 | 1.08 | inactive |
| TAS2R50 | 0.51 | 1.36 | inactive |
| CCN2 | 0.66 | 1.14 | inactive |
| ATP1A3 | 0.81 | 0.98 | inactive |
| SERPINB9 | 1.57 | 0.74 | inactive |
| OR51T1 | 0.39 | 0.44 | inactive |
| MRPL45 | 0.59 | 0.97 | inactive |
| AOX1 | 0.33 | 0.19 | inactive |
| SELENOV | 0.23 | 1 | inactive |
| MANBAL | 0.57 | 1.34 | inactive |
| KIF2B | 1.03 | 0.61 | inactive |
| ERCC5 | 0.13 | 1 | inactive |
| TG | 1.25 | 0.72 | inactive |
| KRIT1 | 0.9 | 0.52 | inactive |
| FGFR4 | 0.82 | 0.92 | inactive |
| H2AC11 | 0.83 | 0.59 | inactive |
| ZNF410 | 0.8 | 0.73 | inactive |
| NPHP4 | 0.82 | 0.76 | inactive |
| GPR180 | 0.41 | 1.04 | inactive |
| FAM153CP | 0.16 | 0.53 | inactive |
| TRIP6 | 0.42 | 0.7 | inactive |
| MLC1 | 0.4 | 0.64 | inactive |
| HBG2 | 0.37 | 0.92 | inactive |
| RBM8A | -0.33 | 1.57 | inactive |
| HOMER3 | 0.64 | 0.33 | inactive |
| ANK3 | 1.03 | 0.76 | inactive |
| TIAL1 | 0.91 | 0.82 | inactive |
| VKORC1 | 0.34 | 1.77 | inactive |
| CPN2 | 0.1 | 1.03 | inactive |
| MAL2 | 1 | 0.77 | inactive |
| TGS1 | 0.75 | 1 | inactive |
| AZGP1 | 0.43 | 0.59 | inactive |
| LIMS2 | -0.03 | 2.84 | inactive |
| XPNPEP1 | 0.56 | 1.03 | inactive |
| KCNG2 | 0.61 | 0.76 | inactive |
| KCNG2 | 0.43 | 0.95 | inactive |
| HYKK | 0.27 | 1.36 | inactive |
| HMGB1P1 | 0.45 | 1.08 | inactive |
| DCAF10 | 0.47 | 1.01 | inactive |
| LCE3D | 0.32 | 0.97 | inactive |
| TBX3 | 0.53 | 0.94 | inactive |
| TMEM220 | 0.18 | 2.06 | inactive |
| IMMT | 0.96 | 0.18 | active |
| SAXO6 | 0.91 | 0.7 | inactive |
| RIC3 | 0.71 | 0.96 | inactive |
| CDC42EP3 | 0.52 | 1.27 | inactive |
| NRG2 | 0.37 | 1.52 | inactive |
| TSPAN12 | 0.69 | 0.91 | inactive |
| CNFN | 0.39 | 1.38 | inactive |
| DRC9 | 0.58 | 0.96 | inactive |
| CCDC61 | 0.97 | 1.19 | inactive |
| GNAI2 | 1.04 | 1.06 | inactive |
| PRKG2 | 0.87 | 0.7 | inactive |
| EFNA4 | 0.51 | 1.94 | inactive |
| CYP4F8 | 0.82 | 0.34 | inactive |
| PPP4R4 | 0.17 | 1.36 | inactive |
| HENMT1 | 0.44 | 0.96 | inactive |
| LINC01565 | 0.47 | 0.82 | inactive |
| LDAH | 0.6 | 0.87 | inactive |
| LINC02903 | 0.55 | 0.8 | inactive |
| WFDC3 | 0.26 | 1.04 | inactive |
| FAM131B | 0.38 | 0.92 | inactive |
| STXBP5 | 0.84 | 0.49 | inactive |
| KLHL32 | 0.28 | 0.61 | inactive |
| NXF5 | 0.43 | 1.12 | inactive |
| GPBP1 | 0.38 | 0.48 | inactive |
| ATPSCKMT | 0.43 | 1.25 | inactive |
| ORAI3 | 0.92 | 0.82 | inactive |
| TUBB1 | 0 | 1.56 | inactive |
| APEH | 0.91 | 0.88 | inactive |
| STK3 | 0.76 | 0.78 | inactive |
| MYO1F | 0.31 | 1.4 | inactive |
| PKP3 | 0.94 | 1.15 | inactive |
| ALDH8A1 | 0.67 | 0.37 | inactive |
| TESK2 | 0.23 | 1.12 | inactive |
| RRH | 0.7 | 0.58 | inactive |
| NCOA3 | 0.46 | 0.45 | inactive |
| KANK1 | 0.69 | 0.95 | inactive |
| COX10 | 0.44 | 1.39 | inactive |
| F2RL2 | 0.76 | 0.58 | inactive |
| SOCS2 | 0.59 | 0.6 | inactive |
| B3GLCT | 0.4 | 0.45 | inactive |
| CCDC85B | 0.82 | 0.86 | inactive |
| BOLA1 | 0.61 | 1.04 | inactive |
| DEFA5 | 0.45 | 1.58 | inactive |
| LCN6 | 0.61 | 0.66 | inactive |
| NPAS1 | 0.93 | 0.81 | inactive |
| FHOD1 | 0.68 | 0.99 | inactive |
| COL1A1 | 0.59 | 0.78 | inactive |
| SLC26A8 | 0.36 | 1.01 | inactive |
| CXCR2 | 0.58 | 1.96 | inactive |
| CABP1 | 1.22 | 0.92 | inactive |
| DDC | 0.65 | 0.58 | inactive |

18 entries from above in another layout:
LINC02903: cell gain with vemurafenib = 0.55; lactate per cell with vemurafenib = 0.8; activity call = inactive
WFDC3: cell gain with vemurafenib = 0.26; lactate per cell with vemurafenib = 1.04; activity call = inactive
FAM131B: cell gain with vemurafenib = 0.38; lactate per cell with vemurafenib = 0.92; activity call = inactive
STXBP5: cell gain with vemurafenib = 0.84; lactate per cell with vemurafenib = 0.49; activity call = inactive
KLHL32: cell gain with vemurafenib = 0.28; lactate per cell with vemurafenib = 0.61; activity call = inactive
NXF5: cell gain with vemurafenib = 0.43; lactate per cell with vemurafenib = 1.12; activity call = inactive
GPBP1: cell gain with vemurafenib = 0.38; lactate per cell with vemurafenib = 0.48; activity call = inactive
ATPSCKMT: cell gain with vemurafenib = 0.43; lactate per cell with vemurafenib = 1.25; activity call = inactive
ORAI3: cell gain with vemurafenib = 0.92; lactate per cell with vemurafenib = 0.82; activity call = inactive
TUBB1: cell gain with vemurafenib = 0; lactate per cell with vemurafenib = 1.56; activity call = inactive
APEH: cell gain with vemurafenib = 0.91; lactate per cell with vemurafenib = 0.88; activity call = inactive
STK3: cell gain with vemurafenib = 0.76; lactate per cell with vemurafenib = 0.78; activity call = inactive
MYO1F: cell gain with vemurafenib = 0.31; lactate per cell with vemurafenib = 1.4; activity call = inactive
PKP3: cell gain with vemurafenib = 0.94; lactate per cell with vemurafenib = 1.15; activity call = inactive
ALDH8A1: cell gain with vemurafenib = 0.67; lactate per cell with vemurafenib = 0.37; activity call = inactive
TESK2: cell gain with vemurafenib = 0.23; lactate per cell with vemurafenib = 1.12; activity call = inactive
RRH: cell gain with vemurafenib = 0.7; lactate per cell with vemurafenib = 0.58; activity call = inactive
NCOA3: cell gain with vemurafenib = 0.46; lactate per cell with vemurafenib = 0.45; activity call = inactive
